Results taken from PubChem BioAssay AID2685 (National Center for Advancing Translational Sciences (NCATS), 2010).
Where “and” joins values, the source holds several entries; their conditions need not be identical. Equal entries are not always repeated. This is one part of the list. The main result of the screen is listed elsewhere. These columns were measured beside it and carry no call. Most of these compounds were active or inconclusive in the main read-out, so they are no random draw. Words in brackets tell the shape of the fitted curve; partial curves, single points and poor fits give uncertain potencies.

Assay: qHTS Assay for Lipid Storage Modulators in Drosophila S3 Cells;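 on cell number change: cells counted by Cell Tracker Red CMTPX staining in the red channel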
Settings: BODIPY lipid droplet fluorescence, 18-24 h; for cell number change: measured here: cell count max response, cells fed with added oleic acid
Method in brief: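 Drosophila S3 cells got compounds at several concentrations plus oleic acid (400 uM solution). Laser-scanning cytometry with 488 nm excitation read lipid droplets at 500-530 nm and cells at 575-640 nm. Percent activity was relative to 20 uM Triacsin C.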

[1] = measured here: cell number channel AC50, cells fed with added oleic acid
[2] = measured here: lipid fluorescence (Fed channel) AC50, cells fed with added oleic acid

## O=C(/C=C/c1ccc(Cl)cc1Cl)N(Cc1ccccc1)C1CCS(=O)(=O)C1 (stereo not drawn)
[1]
  AC50: 0.731 µM [rising, full curve, poor fit]
[2]
  AC50: 14.6 µM [rising, partial curve]

## Cc1cc(C(=O)CSc2nnc(N)s2)c(C)n1CCc1ccc(Cl)cc1
  cell number change: -19.4%
[2]
  AC50: 0.184 µM [rising, full curve, poor fit]

## CC1(C)COC(c2cccc(C3=NC(C)(C)CO3)n2)=N1
[2]
  AC50: 18.4 µM [rising, single point]

## CC(C)NC(=O)COc1ccc(OCc2ccccc2)cc1
[1]
  AC50: 6.51 µM [falling, single point]

## CC12CC(NC(=O)N1c1cccc(C(=O)NCc3ccccc3)c1)c1ccccc1O2 (stereo not drawn)
  cell number change: -14.7%
[2]
  AC50: 29.1 µM [falling, single point]

## COc1ccc(C(=O)CN2C(=O)NC(C)(c3ccccc3)C2=O)cc1OC (stereo not drawn)
  cell number change: -8.89%
[2]
  AC50: 6.51 µM [falling, single point]

## Cc1ccccc1-c1nnc(CN2CCN(C(=O)c3ccco3)CC2)o1
  cell number change: 44.4%
[1]
  AC50: 29.1 µM [rising, single point]

## COc1ccccc1N1CCN(CCCCNC(=O)c2ccc3ccccc3c2)CC1
  cell number change: 21.5%
[2]
  AC50: 29.1 µM [rising, single point]

## O=c1cc(CSc2nnnn2-c2ccc(O)cc2)nc2sccn12
  cell number change: 27.2%
[2]
  AC50: 6.51 µM [rising, single point]

## O=S(=O)(c1ccc(SCc2ccc(Cl)cc2)nc1)N1CCCC1
  cell number change: -7.39%
[2]
  AC50: 6.51 µM [rising, single point]

## COC(=O)Nc1nc(-c2ccccc2)c(C(=O)c2ccccc2)s1
  cell number change: 6.56%

## O=C(NCC1CCOCC1)c1cc(COc2ccc(F)cc2F)on1
  cell number change: 64%
[1]
  AC50: 13 µM [rising, partial curve]
[2]
  AC50: 0.517 µM [rising, full curve]

## CCn1c(SCC(=O)c2ccc(Cl)cc2)nnc1-c1cccs1
  cell number change: 61.4%
[1]
  AC50: 3.66 µM [rising, partial curve]
[2]
  AC50: 3.66 µM [rising, single point]

## C=CCN(C(=O)CNC(=O)c1ccco1)C(C(=O)NC1CCCCC1)c1cccnc1 (stereo not drawn)
  cell number change: -0.901%
[2]
  AC50: 29.1 µM [rising, single point]

## O=C(OCn1nnc2ccccc2c1=O)C12CC3CC(CC(O)(C3)C1)C2
  cell number change: 15.1%

## O=c1[nH]c(/C=C/c2ccccc2Cl)nc2ccccc12
  cell number change: 15.4%
[2]
  AC50: 7.31 µM [rising, partial curve, poor fit]

## Nc1nc(N)nc(-c2cccc(Cl)c2)n1
  cell number change: 9.25%
[2]
  AC50: 0.00461 µM [rising, full curve, poor fit]

## O=C(CNc1ccccc1)NNC1=NCCC1
  cell number change: -13.8%
[2]
  AC50: 0.517 µM [falling, full curve, poor fit]

## O=C(O)/C=C\c1cccc(-n2cnnn2)c1
  cell number change: -7.23%
[2]
  AC50: 18.4 µM [falling, single point]

## CCOc1ccc(NCc2cccn2-c2nnc(N3CCC(C(=O)NCCCN4CCCCC4CC)CC3)s2)cc1 (stereo not drawn)
  cell number change: 10.1%
[2]
  AC50: 7.31 µM [rising, partial curve]

## COc1cccc(-c2cc(C(=O)N3CCN(C(=O)c4ccco4)CC3)[nH]n2)c1
  cell number change: 3.07%

## Cc1c(NC(=S)NC(=O)c2ccco2)cccc1-c1nc2ncccc2o1
  cell number change: 6.37%
[2]
  AC50: 0.116 µM [falling, full curve, poor fit]

## Cc1nn(-c2ccccc2)c(Cl)c1C(=O)NCC1CCCO1 (stereo not drawn)
  cell number change: 21.7%
[1]
  AC50: 6.51 µM [falling, single point]
[2]
  AC50: 11.6 µM [rising, partial curve, poor fit]

## O=C(OC1CSc2nc3ccccc3n2C1)c1ccco1 (stereo not drawn)
  cell number change: -4.2%

## Cn1c(SCC(=O)N/N=C/c2cccnc2)nnc1-c1ccccc1
  cell number change: 22.2%
[2]
  AC50: 2.31 µM [rising, full curve]

## Cc1ccc(-n2nnc3c(=O)n(Cc4ccccc4C)cnc32)cc1
  cell number change: -20.6%
[1]
  AC50: 1.84 µM [rising, partial curve]
[2]
  AC50: 2.06 µM [rising, partial curve, poor fit]

## CCC(=O)NC(c1ccco1)c1cc(Br)c2cccnc2c1O (stereo not drawn)
  cell number change: 16.8%
[2]
  AC50: 29.1 µM [rising, single point]

## C=CCOc1ccccc1CN1CCC(Oc2ccc(C(=O)N3CCCC3)cc2)CC1
  cell number change: -7.95%
[2]
  AC50: 16.4 µM [rising, partial curve]

## O=C(CN(c1ccc(Cl)cc1)S(=O)(=O)c1ccc(Cl)c([N+](=O)[O-])c1)NCCc1ccc(F)cc1
  cell number change: -12.5%
[1]
  AC50: 0.651 µM [falling, full curve, poor fit]
[2]
  AC50: 0.731 µM [falling, full curve]

## O=C(O)CSc1nnc(-c2ccncc2)n1C1CCCCC1
  cell number change: -20.7%
[2]
  AC50: 3.66 µM [falling, partial curve, poor fit]

## O=C(Cn1cnc2c(nnn2-c2ccccc2)c1=O)NCC1CCCO1 (stereo not drawn)
  cell number change: -14.5%
[2]
  AC50: 29.1 µM [falling, single point]

## CC1=C(C(N)=O)C(c2cccnc2)n2nc(-c3cccc(Cl)c3)nc2N1 (stereo not drawn)
  cell number change: -14.4%
[2]
  AC50: 1.3 µM [falling, full curve, poor fit]

## Fc1cccc(-c2cc3nc4c(c(N5CCC6(CC5)OCCO6)n3n2)CCCC4)c1
  cell number change: 6.75%
[2]
  AC50: 2.06 µM [rising, partial curve]

## COc1ccc(Cc2nc3ccc(C(=O)NCc4cc(C)no4)cc3o2)cc1
  cell number change: 24.8%
[2]
  AC50: 11.6 µM [rising, partial curve]

## Cc1cccc(Nc2nc(-c3ccc(O)cc3O)cs2)n1
  cell number change: -33.1%
[1]
  AC50: 2.59 µM [falling, full curve, poor fit]
[2]
  AC50: 6.51 µM [falling, partial curve, poor fit]

## CCC(=O)C1=C(O)C(c2cccc(Oc3ccccc3)c2)CCC1=O (stereo not drawn)
  cell number change: -15.3%
[2]
  AC50: 6.51 µM [falling, single point]

## Cc1ccc(C(C(=O)NC2CCCC2)N(Cc2ccco2)C(=O)CCC(=O)Nc2ccccn2)cc1 (stereo not drawn)
  cell number change: -17.4%

## Cc1ccc(C(=O)CCS(=O)(=O)c2ccc(F)cc2)cc1
  cell number change: 32.4%
[2]
  AC50: 22.4 µM [falling, partial curve, poor fit]

## Cc1cc(C)cc(Cn2ncc(Cl)c(Cl)c2=O)c1
[2]
  AC50: 0.58 µM [rising, single point]

## Cc1cc(C)c(NC(=O)CNC(=O)c2ccc(-n3cncn3)c([N+](=O)[O-])c2)c(C)c1
  cell number change: 33.7%

## Cc1cnc(C(=O)OCc2ccc(C#N)cc2)cn1
  cell number change: 25.8%
[2]
  AC50: 0.517 µM [rising, single point]

## CN1C2CC(OC(=O)C(CO)c3ccccc3)CC1C1OC12 (stereo not drawn)
  cell number change: 6.84% and -72.2%
[1]
  AC50: 4.11 µM [falling, full curve]
[2]
  AC50: 29.1 µM [rising, single point] and 23.1 µM [rising, single point]

## COc1ccc(CN2CCC(=O)N(CCO)CC2)cc1OC
  cell number change: 12.6%

## O=C(NCC1CCCO1)c1cc(-c2ccncc2)nc2ccccc12 (stereo not drawn)
  cell number change: -7.48%
[2]
  AC50: 0.13 µM [falling, full curve, poor fit]

## O=C(Nc1oc2ccc(Cl)cc2c(=O)c1-c1ccc(F)cc1)c1ccco1
  cell number change: -22.4%
[2]
  AC50: 29.1 µM [falling, single point]

## Cc1cc2c(s1)c(C#N)c(C(=O)NCc1ccccc1F)n2C
  cell number change: 46.8%
[1]
  AC50: 18.4 µM [rising, single point]
[2]
  AC50: 23.1 µM [rising, partial curve, poor fit]

## CCCN(CC(=O)Nc1ccccc1C)C(=O)c1ccc2c(c1)OCO2
  cell number change: -31.5%
[1]
  AC50: 1.84 µM [falling, partial curve, poor fit]
[2]
  AC50: 29.1 µM [falling, single point]

## Cc1cccc(-n2c(CNC(=O)COc3ccccc3)nnc2SCC(=O)Nc2nccs2)c1
  cell number change: -6.9%
[2]
  AC50: 1.46 µM [falling, partial curve, poor fit]

## N#Cc1cccc(C(c2nnnn2CCc2ccccc2)N2CCN(C3CCCCC3)CC2)c1 (stereo not drawn)
  cell number change: 5.41%

## CC(C)Oc1ccc(C(CCNCc2ccc(O)cc2)c2ccccc2)cc1 (stereo not drawn)
  cell number change: -25.2%
[1]
  AC50: 0.146 µM [rising, partial curve, poor fit]
[2]
  AC50: 29.1 µM [falling, single point]

## COc1ccccc1OCCSc1nnc(C)n1-c1ccccc1
  cell number change: -0.694%
[1]
  AC50: 0.00461 µM [rising, full curve, poor fit]

## Cc1cc2c(nn1)CCc1c-2no[n+]1[O-]
  cell number change: -3.51%
[1]
  AC50: 0.92 µM [falling, full curve, poor fit]

## CCN1C(=NCC(C)C)N[C@@H](c2ccccc2)[C@H](C(=O)OC)[C@H]1C
  cell number change: 25.6%
[2]
  AC50: 29.1 µM [rising, single point]

## Cn1c(O)c(N=NC(=O)CNC(=O)c2ccccc2)c2cc(Br)ccc21
  cell number change: 3.48%

## CC(=O)Nc1ccc(OCC=C(Cl)Cl)cc1
  cell number change: 108%
[1]
  AC50: 14.6 µM [rising, partial curve]
[2]
  AC50: 2.06 µM [rising, partial curve]

## CCCC(=O)NC(NC(=S)Nc1ccc(N=Nc2ccccc2)cc1)C(Cl)(Cl)Cl (stereo not drawn)
  cell number change: -39.8%
[1]
  AC50: 18.4 µM [falling, single point]
[2]
  AC50: 18.4 µM [falling, single point]

## O=C(CN1CCCCC1)Nc1cccc(Cl)c1
  cell number change: 28.3%

## C/C(Nc1ccc(Cl)cc1)=C(/C#N)C(N)=O
  cell number change: -10.7%
[2]
  AC50: 0.164 µM [falling, full curve, poor fit]

## COCCNC(=O)COC(=O)c1ccc(S(=O)(=O)N2CCOCC2)cc1
  cell number change: -39.2%
[1]
  AC50: 32.6 µM [falling, single point]
[2]
  AC50: 32.6 µM [falling, single point]
